From paper PMC10613150 come the findings set out here.

Sequences of proteins named here, by UniProt entry; tags and fusion partners are left off.
UniProt P03165: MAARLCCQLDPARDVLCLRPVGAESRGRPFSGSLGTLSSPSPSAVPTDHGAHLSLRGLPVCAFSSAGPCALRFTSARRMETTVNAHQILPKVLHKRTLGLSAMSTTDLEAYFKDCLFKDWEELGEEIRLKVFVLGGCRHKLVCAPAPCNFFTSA
UniProt P03146: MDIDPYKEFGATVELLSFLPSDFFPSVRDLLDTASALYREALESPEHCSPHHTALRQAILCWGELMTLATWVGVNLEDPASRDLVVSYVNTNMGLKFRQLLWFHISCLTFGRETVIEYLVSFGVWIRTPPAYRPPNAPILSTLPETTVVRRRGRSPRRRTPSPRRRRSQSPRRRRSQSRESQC

In assay [1] the target is hepatitis B x protein with Flag tag (hepatitis B virus) (UniProt P03165). The experiment in a line: co-IP; HEK293T co-transfected with Myc-OTUD5 and a Flag-tagged HBV protein; lysed 48 h after transfection in 50 mM Tris-HCl pH 8.0, 150 mM NaCl, 1% NP-40; lysates incubated overnight with anti-FLAG M2 magnetic beads (Fig. 4B-D) or anti-Myc magnetic beads (Fig. 4E-G).
Assay [2] addresses hepatitis B core protein with Flag tag (hepatitis B virus) (UniProt P03146). The assay is described as above.
In assay [3] the target is endogenous HBV core (hepatitis B virus (produced in HepG2.2.15)) (UniProt P03146). In words: co-IP; HepG2.2.15 cells treated with MG132 for 8 h; lysates IP with anti-HBc, IB with anti-OTUD5; endogenous proteins.

Results are given in words; binding and its absence hold for the method and conditions named. Binding seen in cells or lysates may run through a third protein. Some entries that bind do so weakly or less than the wild type. For part of these data: Where a sequence is shown, tags or fusion partners need not be part of it.

B1: OTUD5 with Myc tag (enzyme, UniProt Q96G74 1-571)
chain: MTILPKKKPPPPDADPANEPPPPGPMPPAPRRGGGVGVGGGGTGVGGGDRDRDSGVVGARPRASPPPQGPLPGPPGALHRWALAVPPGAVAGPRPQQASPPPCGGPGGPGGGPGDALGAAAAGVGAAGVVVGVGGAVGVGGCCSGPGHSKRRRQAPGVGAVGGGSPEREEVGAGYNSEDEYEAAAARIEAMDPATVEQQEHWFEKALRDKKGFIIKQMKEDGACLFRAVADQVYGDQDMHEVVRKHCMDYLMKNADYFSNYVTEDFTTYINRKRKNNCHGNHIEMQAMAEMYNRPVEVYQYSTGTSAVEPINTFHGIHQNEDEPIRVSYHRNIHYNSVVNPNKATIGVGLGLPSFKPGFAEQSLMKNAIKTSEESWIEQQMLEDKKRATDWEATNEAIEEQVARESYLQWLRDQEKQARQVRGPSQPRKASATCSSATAAASSGLEEWTSRSPRQRSSASSPEHPELHAELGMKPPSPGTVLALAKPPSPCAPGTSSQFSAGADRATSPLVSLYPALECRALIQQMSPSAFGLNDWDDDEILASVLAVSQQEYLDSMKKNKVHRDPPPDKS
Regarding B1, the binding entry is “no binding” in assay [1] and “binds” in assay [2].

B2: endogenous OTUD5 (enzyme, UniProt Q96G74 1-571)
chain: B1 chain
In the case of B2, the binding result in assay [3] is on record as “binds”.
